The list shows a part of the results. Shown are side measurements of this screen, not its main read-out; they come without a call. The list favours compounds with an active or inconclusive main result. Potencies come from curve fits of mixed quality, noted in brackets.

This test in a line: qHTS Assay for Modulators of Lamin A Splicing. Conditions: HeLa LMNA splicing GFP/RFP minigene ratio, 48 h. A digest of the protocol:
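Read-out is the ratio of GFP to DsRed2 object intensity, acquired by 488 nm laser-scanning cytometry on HeLa lamin A-EGFP minigene reporter cells. Compound incubation 48 hrs at 37 °C in Opti-MEM with 2% FBS; DMSO 0.5% final.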
(qHTS replaces the single test concentration by a dilution series.)

[1] abbreviates: measured here: GFP splicing reporter channel.
The mark [2] stands for this setting: measured here: RFP viability control channel.

Broadly, the AC50 is the midpoint of the concentration-response curve, whichever way the signal moves. Consider `NS(=O)(=O)c1ccc(N2N=C(c3ccc(Br)cc3)CC2c2ccc(F)cc2)cc1` (stereo unspecified), for which the AC50 under setting [1] is 28.2 µM [falling, single point] and the AC50 under setting [2] was 35.5 µM [falling, single point]. On to `CC(c1ccccc1F)n1cc(C(=O)NCCCc2nc3ccccc3[nH]2)nn1` (stereo unspecified), for which the AC50 under setting [2] was 0.00316 µM [falling, full curve, poor fit]. Same read-out and setting: the result for `O=C(O)c1ccc2nc(-c3ccccc3)sc2c1` reads 0.158 µM [rising, full curve, poor fit]. For `CC1CCN(C(=O)CCc2ccc(Oc3cc([N+](=O)[O-])cc([N+](=O)[O-])c3)cc2)CC1`, the AC50 by setting is: under setting [1], 14.1 µM [rising, single point]; under setting [2], 25.1 µM [rising, single point]. Take `Cc1sc2ncnc(N3CCCCC3)c2c1C`: under setting [2], the AC50 was 35.5 µM [rising, single point]. As for `O=C(CSc1cccc2cccnc12)N/N=C/c1ccc(F)cc1`, under setting [1], the AC50 is 0.355 µM [rising, full curve, poor fit].

Turning to `COc1ccc(-c2nnc(NC(=O)c3ccc(S(=O)(=O)N4CCCc5ccccc54)cc3)o2)cc1`, the AC50 under setting [2] was 15.8 µM [rising, partial curve].

Regarding `CC(C)S(=O)(=O)c1ccc(C(=O)Nc2ccc(F)cc2F)cn1`, the AC50 under setting [2] is 25.1 µM [falling, single point].

`CCNC(=O)NC(=O)C(C)Oc1ccc(Br)cc1Br` (stereo unspecified): the AC50 is 17.8 µM [falling, single point] under setting [1] and 15.8 µM [falling, single point] under setting [2].

`Cc1noc(C)c1COC(=O)c1cccnc1SCC(=O)Nc1ccc2c(c1)OCO2`: under setting [2], the AC50 is 15.8 µM [rising, partial curve]. The same measure, in the same setting: as for `CC(C)Oc1ccc(CNC(=O)c2sc3ncccc3c2-n2cccc2)cc1`, the figure is 17.8 µM [falling, partial curve, poor fit]; as for `CC(C)C(OC(=O)c1cc2sccc2n1C)C(=O)NCC1CCCO1` (stereo unspecified), 25.1 µM [rising, single point]; as for `CCc1nnc(NC(=O)CSc2nc3cccnc3n2C2CCCCC2)s1`, 35.5 µM [rising, single point]. Still for that read-out and setting: as for `COc1ccc(/C=C/C(=O)c2ccc[nH]2)cc1OC`, the figure is 5.62 µM [rising, partial curve]; as for `Cc1nc(SCC(=O)Nc2ccc(C)c(Cl)c2)cc(-c2ccccc2)n1`, 0.158 µM [falling, full curve, poor fit]. Still for that read-out and setting: the result for `Cc1ccc(CCNC(=O)C2CCCN2S(=O)(=O)c2ccc3c(c2)CCC(=O)N3)cc1` (stereo unspecified) reads 15.8 µM [rising, partial curve, poor fit]; that for `CC(/C=C/c1ccccc1)=N\Nc1nc(C)cc(C)n1`, 8.91 µM [rising, partial curve].

Consider `CCOC(=O)c1cc2c(ccn2C)n1CC(=O)N(Cc1ccccc1)c1ccc(F)cc1`, for which the AC50 is 10 µM [rising, partial curve, poor fit] under setting [1] and 12.6 µM [rising, partial curve] under setting [2]. `COc1ccc(Cl)cc1Nc1ncnc2sc(C)c(S(=O)(=O)N3CCC(C)CC3)c12`: under setting [2], the AC50 is 12.6 µM [rising, partial curve, poor fit].

As to `COc1ccc(NC(=O)c2c(Nc3ccccc3)sc(C(=O)c3ccc(F)cc3)c2N)cc1`, the AC50 under setting [2] was 3.16 µM [rising, full curve, poor fit].

As for `CC(C)c1ccc(Nc2nnc(SCC(=O)Nc3ncc(S(=O)(=O)c4ccc([N+](=O)[O-])cc4)s3)s2)cc1`, under setting [2], the AC50 was 0.0158 µM [falling, full curve, poor fit]. The same measure, in the same setting: the result for `Cc1ccc(O)c(-c2cc3ccccc3[nH]2)c1` reads 10 µM [rising, partial curve]. Take `Cc1ccc(Cl)cc1NC(=O)CCCN1C(=O)c2cccnc2C1=O`: under setting [1], the AC50 was 0.0501 µM [rising, full curve, poor fit]. As for `Cc1c(Br)c(=O)oc2c(Br)c(O)c(O)cc12`, under setting [2], the AC50 was 35.5 µM [rising, single point]. Still for that read-out and setting: the result for `CC(NC(=O)c1cc(-c2ccccc2)nc2ccccc12)C1CCCO1` (stereo unspecified) reads 0.00447 µM [falling, full curve, poor fit]. Consider `O=C(NCc1ccncc1)c1cccc(Cn2cc(Br)cn2)c1`, for which the AC50 is, setting by setting: under setting [1], 11.2 µM [rising, single point]; under setting [2], 12.6 µM [rising, partial curve].

Consider `Brc1ccc2c(c1)C(c1ccc(N3CCOCC3)cc1)=NNC(c1cccs1)=N2`, for which, under setting [2], the AC50 is 11.2 µM [rising, partial curve].

As to `Fc1ccc(Nc2ccnc(-c3ccc4c(c3)OCO4)n2)cc1`, the AC50 under setting [1] is 2 µM [falling, partial curve, poor fit]. In the case of `COc1ccc(CN(C(=O)CSc2nnc(-c3ccccc3F)o2)c2ccc(F)cc2)cc1`, the AC50 by setting is: under setting [1], 14.1 µM [rising, single point]; under setting [2], 20 µM [rising, single point].

As to `CCSc1nnc(NC(=O)[C@@H](NC(=O)c2ccc(C(C)(C)C)cc2)C(C)C)s1`, the AC50 is 7.94 µM [rising, partial curve, poor fit] under setting [1] and 15.8 µM [rising, partial curve] under setting [2]. Take `O=C(NCc1ccco1)c1cccnc1Cl`: the AC50 reads like this: under setting [1], 5.62 µM [rising, single point]; under setting [2], 5.62 µM [rising, single point]. On to `CCOC(=O)c1ccc(NC(=O)c2oc3c(c2C)-c2nn(Cc4ccccc4Cl)cc2CC3)cc1`, for which the AC50 runs as follows: under setting [1], 14.1 µM [falling, single point]; under setting [2], 25.1 µM [falling, single point]. As for `CC1(C)CCCC(C)(C)N1CC(O)COCCOc1ccc(Br)cc1` (stereo unspecified), the AC50 under setting [2] is 7.94 µM [rising, partial curve]. With `CCCCOc1ccccc1C1CC(=O)Nc2cc(C)c(C)cc21` (stereo unspecified), the AC50 is 35.5 µM [falling, single point] under setting [1] and 35.5 µM [falling, single point] under setting [2]. As for `NC1(C(=O)O)CC1`, the AC50 under setting [1] is 0.00447 µM [falling, full curve, poor fit] and the AC50 under setting [2] is 0.00501 µM [falling, full curve, poor fit].

As to `COc1ccc(S(=O)(=O)Nc2cc3c4c(oc3c3ccccc23)CCCC4=O)cc1`, the concentration at half-maximal activity (AC50) runs as follows: under setting [1], 11.2 µM [falling, partial curve]; under setting [2], 35.5 µM [falling, single point].

In the case of `CCN1CCN(c2oc(COc3ccc(-c4ccccc4)cc3)nc2C#N)CC1`, the AC50 is, setting by setting: under setting [1], 14.1 µM [rising, single point]; under setting [2], 22.4 µM [rising, partial curve]. As to `CN(c1cccc(NC(=O)Nc2cccc(Cl)c2)c1)S(C)(=O)=O`, the AC50 under setting [1] was 17.8 µM [rising, partial curve] and the half-maximal activity concentration (AC50) under setting [2] is 14.1 µM [rising, partial curve]. `COc1ccc(Cl)cc1N(C)C(=O)CCc1nc(-c2ccc(C)cc2)no1`: the AC50 by setting is: under setting [1], 11.2 µM [rising, partial curve]; under setting [2], 17.8 µM [rising, single point].

In the case of `Cc1cccc(C2(c3cccc(C)c3)OC(=O)c3ccccc32)c1`, the AC50 was 11.2 µM [rising, single point] under setting [1] and 15.8 µM [rising, single point] under setting [2].

As to `COC(=O)c1cc(-c2ccc(OC)cc2)n[nH]1`, the half-maximal activity concentration (AC50) under setting [2] was 0.794 µM [rising, full curve, poor fit]. Take `O=C(CSc1nc2c([nH]c3ccccc32)c(=O)n1-c1ccccc1F)Nc1cccc(C(F)(F)F)c1`: under setting [2], the AC50 was 0.891 µM [falling, partial curve]. Regarding `O=C(/C=C/c1cccs1)NC(=S)NNC(=O)c1ccccc1O`, the AC50 under setting [2] is 20 µM [rising, partial curve].

With `CCOC(=O)Cn1cc(/C=C/[N+](=O)[O-])c2ccccc21`, the AC50 under setting [1] is 35.5 µM [falling, partial curve, poor fit].

`COC(=O)CNC(=O)C(NC(=O)OCc1ccccc1)C(C)C` (stereo unspecified): the AC50 under setting [2] was 6.31 µM [falling, partial curve, poor fit]. The same measure, in the same setting: as for `CC(CNC(=O)COc1ccccc1)OC(=O)Nc1cccc(Cl)c1` (stereo unspecified), the figure is 11.2 µM [rising, partial curve, poor fit]. For `CCc1ccc(NC(=O)Cc2ccc(OC)cc2)cc1`, the half-maximal activity concentration (AC50) by setting is: under setting [1], 17.8 µM [rising, partial curve, poor fit]; under setting [2], 11.2 µM [rising, partial curve, poor fit]. As to `Cc1ccccc1OCC(O)CN1CCN(CCN2C(=O)c3cccc4cccc(c34)C2=O)CC1` (stereo unspecified), under setting [2], the AC50 was 31.6 µM [rising, single point]. The same measure, in the same setting: as for `CCN1CCN(C(=O)c2ccc(Sc3ccccc3Cl)c([N+](=O)[O-])c2)CC1`, the figure is 11.2 µM [rising, partial curve].

Consider `Cc1ccccc1-c1ccc2ncnc(N(C)C)c2c1`, for which, under setting [1], the AC50 is 17.8 µM [falling, single point]. Regarding `Cc1nc(NC(=O)c2cc3c(s2)CCCCC3)sc1C(=O)N(C)C`, under setting [2], the AC50 was 14.1 µM [rising, single point]. Consider `COc1ccc(CCNc2oc(Cc3cccc4ccccc34)nc2C#N)cc1OC`, for which the AC50 by setting is: under setting [1], 14.1 µM [rising, partial curve]; under setting [2], 15.8 µM [rising, single point]. In the case of `O=C(Nc1ccccc1)Nc1nnc(SCC(=O)N2CCCCC2)s1`, the AC50 runs as follows: under setting [1], 15.8 µM [falling, single point]; under setting [2], 8.91 µM [falling, partial curve, poor fit]. On to `CC1CC1c1ccc(/C=C(\C#N)C(=O)Nc2ccc(Cl)cc2Cl)o1` (stereo unspecified), for which the AC50 is, setting by setting: under setting [1], 35.5 µM [rising, single point]; under setting [2], 35.5 µM [rising, single point]. Take `CC1=C(c2ccc(C)c(C)c2)S(=O)(=O)N(Cc2ccc(C(=O)Nc3cc(F)ccc3F)cc2)C1=O`: the AC50 reads like this: under setting [1], 0.00501 µM [falling, full curve, poor fit]; under setting [2], 2.51 µM [rising, partial curve].

For the origin of these results see PubChem BioAssay AID1487 (National Center for Advancing Translational Sciences (NCATS), 2009).
